This note sets out measurements from publication PMC12533369, “Citrullination of AKT2 Catalyzed by PAD1 Facilitates the Maintenance of Stemness Characteristics of Ovarian Cancer Stem‐Like Cells in Ovarian Cancer” (Advanced Science, 2025).

Protein sequences, listed by entry. Tags and fused reporters are not part of them.
UniProt P31751: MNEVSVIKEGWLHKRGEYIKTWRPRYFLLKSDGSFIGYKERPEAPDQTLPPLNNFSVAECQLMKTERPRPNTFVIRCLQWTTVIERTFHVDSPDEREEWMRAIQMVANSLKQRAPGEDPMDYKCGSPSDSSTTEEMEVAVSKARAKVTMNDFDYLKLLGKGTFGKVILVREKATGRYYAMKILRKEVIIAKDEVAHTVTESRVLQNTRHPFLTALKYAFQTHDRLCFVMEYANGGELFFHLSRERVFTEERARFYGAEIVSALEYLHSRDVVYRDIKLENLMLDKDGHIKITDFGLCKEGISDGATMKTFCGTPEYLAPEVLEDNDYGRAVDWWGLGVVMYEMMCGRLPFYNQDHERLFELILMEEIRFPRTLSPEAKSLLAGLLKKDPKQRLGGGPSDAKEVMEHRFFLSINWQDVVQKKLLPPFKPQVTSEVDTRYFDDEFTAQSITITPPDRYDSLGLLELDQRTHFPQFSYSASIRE

This assay has as its target T1, peptidylarginine deiminase 1 (PAD1), endogenous (human (endogenous in OVCAR3)) (UniProt Q9ULC6).
T1 sequence: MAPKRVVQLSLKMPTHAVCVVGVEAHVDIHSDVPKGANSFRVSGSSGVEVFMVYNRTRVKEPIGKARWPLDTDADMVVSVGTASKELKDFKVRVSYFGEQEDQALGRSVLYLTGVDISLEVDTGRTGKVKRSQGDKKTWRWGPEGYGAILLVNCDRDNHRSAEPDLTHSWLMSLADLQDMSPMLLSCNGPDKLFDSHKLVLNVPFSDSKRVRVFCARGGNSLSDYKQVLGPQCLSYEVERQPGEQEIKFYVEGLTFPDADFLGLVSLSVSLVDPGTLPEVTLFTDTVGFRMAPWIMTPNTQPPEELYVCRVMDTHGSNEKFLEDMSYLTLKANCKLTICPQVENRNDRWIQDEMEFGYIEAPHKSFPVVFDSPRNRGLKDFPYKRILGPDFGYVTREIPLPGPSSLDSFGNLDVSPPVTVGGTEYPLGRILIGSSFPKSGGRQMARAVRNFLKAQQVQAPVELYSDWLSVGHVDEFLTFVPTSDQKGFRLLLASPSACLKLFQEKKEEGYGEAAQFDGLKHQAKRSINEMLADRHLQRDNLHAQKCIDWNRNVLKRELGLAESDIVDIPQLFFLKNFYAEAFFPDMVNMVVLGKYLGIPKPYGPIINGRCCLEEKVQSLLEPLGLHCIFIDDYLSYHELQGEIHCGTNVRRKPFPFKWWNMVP
Description: affinity purification with mass spectrometry; co-immunoprecipitation from OVCAR3 cells with anti-PAD1 antibody, then LC-MS/MS; endogenous proteins.

No constants are given. Whether binding was seen depends on the method and setting. In cells and extracts the contact can be indirect. Here binding means that the protein was enriched with, or labelled near, the bait; the list need not be complete.

With “AKT2, endogenous (from UniProt P31751 1-481) (enzyme)”, the binding entry is reported as “binds”.
